PubChem BioAssay AID1259308 | NCATS | 2017
Screen: 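Genes whose loss raises luciferase production in HEK293 cells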 (primary screen). System: human HEK293 embryonic kidney cells stably expressing firefly luciferase (HEK-CMV-Luc2-Hygro). Reagents: single siRNA against human genes, 0.8 pmol siRNA per well. Time to read-out: 72 h. Detection: 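Reporter luminescence and viable-cell signal on separate replicate plates, given as percent of non-targeting control and median/MAD z-scores, plus per-cell luciferase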. Reading the numbers: total luciferase, z-score and total luciferase, % of control: higher = more reporter protein produced; luciferase per cell, z-score: higher = more reporter output per viable cell; viable cells, % of control: higher = more viable cells. Call rule: 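An siRNA counts as active if its total luciferase robust z-score exceeds 3; genes with two or more such siRNAs out of three were retested with fresh siRNAs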. Calls: active = raised luciferase; inactive = no rise.
Here is one part, drawn at random, of about 59,000 deposited reagents. In the full data, about 1,510 (2.6%) are marked active. 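Calls use total luciferase alone and ignore viability, so some active siRNAs may act by altering cell number.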 A number with no mark means an inactive call. Reagents against one gene are numbered here.

total luciferase, z-score	total luciferase, % of control	luciferase per cell, z-score	viable cells, % of control	gene	reagent
0.837	98.5	0.328	101	DIRC1 (GeneID 116093)	1
0.0255	82.4	0.422	82.4	DIRC1 (GeneID 116093)	2
0.879	99.4	0.617	94.4	DIRC1 (GeneID 116093)	3
0.691	95.6	0.306	98.6	SLC9A2 (GeneID 6549)	1
-0.478	72.4	-1.04	106	SLC9A2 (GeneID 6549)	2
0.735	96.5	0.151	104	SLC9A2 (GeneID 6549)	3
-2.04	41.4	-1.61	70.6	ART5 (GeneID 116969)	1
1.5	112	1.66	80.7	ART5 (GeneID 116969)	2
0.69	95.6	0.733	88.1	ART5 (GeneID 116969)	3
3.74 (active)	156	3.57	68.2	SPATA32 (GeneID 124783)	1
0.875	99.3	0.305	102	SPATA32 (GeneID 124783)	2
1.1	104	0.327	106	SPATA32 (GeneID 124783)	3
-0.19	78.1	-0.273	93.8	EPB41L2 (GeneID 2037)	1
0.379	89.4	0.164	95.7	EPB41L2 (GeneID 2037)	2
-0.286	76.2	-0.886	108	EPB41L2 (GeneID 2037)	3
0.796	97.7	0.536	94.8	SPARCL1 (GeneID 8404)	1
0.616	94.1	0.946	82	SPARCL1 (GeneID 8404)	2
0.284	87.5	0.31	90.1	SPARCL1 (GeneID 8404)	3
-1.04	61.1	-1.18	93.3	ACY1 (GeneID 95)	1
1.16	105	0.708	97.3	ACY1 (GeneID 95)	2
-0.453	72.9	-0.905	103	ACY1 (GeneID 95)	3
2.42	130	1.7	93	LOC645481 (GeneID 645481)	1
-1.61	49.8	-1.14	75.2	LOC645481 (GeneID 645481)	2
0.0578	83	0.0627	91.3	LOC645481 (GeneID 645481)	3
3.9 (active)	159	2.81	84.9	FARS2 (GeneID 10667)	1
-1.87	44.7	0.14	48.2	FARS2 (GeneID 10667)	2
0.974	101	1.02	86.4	FARS2 (GeneID 10667)	3
0.181	85.5	0.297	88.4	IFITM5 (GeneID 387733)	1
-1.55	51	0.542	49.4	IFITM5 (GeneID 387733)	2
-0.258	76.8	0.583	73.6	IFITM5 (GeneID 387733)	3
2.6	134	2.59	75.4	SLC2A6 (GeneID 11182)	1
0.998	102	0.187	108	SLC2A6 (GeneID 11182)	2
-0.15	78.9	-0.108	90.7	SLC2A6 (GeneID 11182)	3
1.19	105	2.32	64	PIK3CG (GeneID 5294)	1
-0.576	70.4	-0.335	86	PIK3CG (GeneID 5294)	2
0.146	84.8	-0.315	103	PIK3CG (GeneID 5294)	3
-0.813	65.7	-1.3	103	MUC21 (GeneID 394263)	1
-0.176	78.4	0.167	83.8	MUC21 (GeneID 394263)	2
0.302	87.9	0.608	83.7	MUC21 (GeneID 394263)	3
0.18	85.5	-0.243	102	CYP2R1 (GeneID 120227)	1
-0.355	74.8	-0.56	96.9	CYP2R1 (GeneID 120227)	2
1.33	108	1.26	86.8	CYP2R1 (GeneID 120227)	3
-0.602	69.9	-0.494	89	ZNF189 (GeneID 7743)	1
-1.03	61.4	-0.763	83.9	ZNF189 (GeneID 7743)	2
0.0512	82.9	0.24	87	ZNF189 (GeneID 7743)	3
-0.23	77.3	-0.416	96.4	NKAPD1 (GeneID 55216)	1
-0.00867	81.7	-0.0824	93.3	NKAPD1 (GeneID 55216)	2
-0.611	69.7	-0.721	94.2	NKAPD1 (GeneID 55216)	3
-1.03	61.5	-1.16	93.2	MYADML2 (GeneID 255275)	1
-0.86	64.8	-0.52	83	MYADML2 (GeneID 255275)	2
0.485	91.5	0.767	83.6	MYADML2 (GeneID 255275)	3
-0.146	79	-0.427	98.8	TTC21A (GeneID 199223)	1
0.194	85.7	-0.107	98.6	TTC21A (GeneID 199223)	2
-0.0446	81	-0.361	99.5	TTC21A (GeneID 199223)	3
-0.253	76.9	-0.676	103	OR2A5 (GeneID 393046)	1
-0.665	68.7	-0.308	83.2	OR2A5 (GeneID 393046)	2
-0.107	79.8	-0.0431	90.1	OR2A5 (GeneID 393046)	3
-1.17	58.6	0.301	60.5	ALG2 (GeneID 85365)	1
0.835	98.5	0.58	94.5	ALG2 (GeneID 85365)	2
-0.693	68.1	-0.79	93.7	ALG2 (GeneID 85365)	3
3.04 (active)	142	2.24	88.2	LSM14A (GeneID 26065)	1
-0.144	79	-0.318	96	LSM14A (GeneID 26065)	2
-0.573	70.5	-0.621	92.8	LSM14A (GeneID 26065)	3
0.621	94.2	0.477	92.9	TBL1XR1 (GeneID 79718)	1
-0.61	69.8	-1.17	106	TBL1XR1 (GeneID 79718)	2
-0.702	67.9	-0.19	79.8	TBL1XR1 (GeneID 79718)	3
-0.802	65.9	-0.774	90.3	ARL5A (GeneID 26225)	1
-0.525	71.4	-0.197	84.1	ARL5A (GeneID 26225)	2
-0.121	79.5	-0.575	103	ARL5A (GeneID 26225)	3
0.591	93.6	0.0718	103	PTPRN2 (GeneID 5799)	1
1.74	116	1.1	97.4	PTPRN2 (GeneID 5799)	2
1.94	120	1.31	95.3	PTPRN2 (GeneID 5799)	3
0.784	97.5	0.00238	109	KCNE5 (GeneID 23630)	1
-0.194	78	-0.157	90.9	KCNE5 (GeneID 23630)	2
-1.25	57	-1.36	91	KCNE5 (GeneID 23630)	3

Targets listed so far whose gene name begins with K or k (3):
total luciferase, z-score	total luciferase, % of control	luciferase per cell, z-score	viable cells, % of control	gene	reagent
0.784	97.5	0.00238	109	KCNE5 (GeneID 23630)	1
-0.194	78	-0.157	90.9	KCNE5 (GeneID 23630)	2
-1.25	57	-1.36	91	KCNE5 (GeneID 23630)	3
